Assay results from US20250057791A1, “PROTECTION AGAINST ARTHROPOD PARASITES WITH PURINERGIC RECEPTOR (OPR) ANTAGONISTS” (priority 2021, published 2025).
At least one structure is not confirmed: it was looked up by name or label, or the drawing left a doubt. Some compounds share one wording; it may come from a single statement.

Legend:
[1] = system: A. gambiae mouthpart ATP-sensitive receptor; assay: Electrophysiological response to 200 pM ATP with PR antagonist admixed; type: cell-based, Anopheles gambiae
Experimental: The tip recording method was used to record action potentials (spikes) from sensory cells in sensilla on A. gambiae labellum lobes.
Sensilla were exposed to test compounds and PR antagonists for ca. 2-4 s and spikes were counted in the first 2 s of recordings. Up to 4 test compounds were tested on a sensillum to evaluate potential agonists, each presented at 200 pM. To study responses as a function of dose for agonists ATP, adenosine, AMP, AMP-CPP and ATP+adenosine, up to 7 recordings were made at increasing doses of agonist from the same sensillum. Unless otherwise stated, recordings were made throughout from 4 to 16 sensilla from individual 4-6-day-old females per dose of agonist, antagonist and metal ion modulator. For example, a response curve established over 6 doses of an antagonist using 8 sensilla per dose involved recording from a sensillum of 48 separate mosquitoes. A given dose of a PR antagonist or metal ion modulator was only presented once to a sensillum. Two-second recordings were imported as ASCII files into DataView software for analysis of spike amplitude. […]
Pairwise comparisons of A. gambiae electrophysiological (EP) responses to ATP and adenosine alone and combined with a given dose of PR antagonist, EP responses to ATP alone and combined with a given dose of a metal modulator, and EP responses to ATP prior to and after exposure of a sensillum to a given dose of a PR antagonist were made with a one-tailed Wilcoxon signed-rank test for data showing a non-normal distribution, with a paired Student's t-test for normally distributed data showing homogeneous variance and with a Welch's t-test for normally distributed data showing non-homogeneous variance. […] Percent feeding inhibition induced by PR antagonists in A. stephensi was calculated using Abbott's formula.
Dose-response models fitted to mosquito data were generated using the ‘drm’ command in the “drc” R package (version 2.5-12). Best fitting models (goodness of fit) and effects of dose of a compound were assessed using, respectively, ‘modelFit’ and ‘noEffect’ functions in the same R package. A 3-parameter logistic model (L3) was fitted to spike-counts recorded to increasing doses of adenosine, AMP, ATP and AMP-CPP. Spike numbers recorded in response to 200 pM ATP with increasing doses of PR antagonists added were analysed using a 4-parameter log-logistic model (LL.4) for A-317491 and spinorphin, using a 4-parameter Weibull model (W1.4) for PPADS, RB-2 and TMP, and using a 3-parameter log-logistic model (LL.3) for suramin. […] Feeding rates on 20 μM ATP with increasing doses of a PR antagonist added were analysed using a 4-parameter log-logistic model (LL.4) with the median of the positive control (20 μM ATP) fixed as the upper asymptote. […]

[2] = system: Amblyomma hebraeum; assay: Glass capillary feeding of partly fed female ticks, Amblyomma hebraeum; type: in vivo; conditions: doses as in Table 9
Source text: I. ricinus adults were prefed for 3-4 days and A. hebraeum adults for 10 days on a membrane over bovine blood (Kröber T. and Guerin P. M., 2007, supra). Partly fed I. ricinus and A. hebraeum, freshly detached from the membrane, were tightly fixed by the scutum and alloscutum to double-sided adhesive tape (Tesafix® 4964, Beiersdorf, Hamburg, Germany) on a glass slide and secured with plasticine. Test compounds were fed to these partly-fed female ticks using borosilicate capillary tubes (Clark GC120-10, 0.69 mm i.d., 1.2 mm o.d., 50 mm long; Clark Electromedical Instruments, Pangbourne, Reading, UK) with drawn out tips adapted to fit around the mouthparts of individual ticks. Feeding capillaries were filled with a solution of 100 mM NaCl, 8.9 mM NaHCO3 with 1000 μM ATP added, hereafter termed tick feeding solution (TFS) that served as positive control in each feeding experiment. PR antagonists were added to the TFS and pH of the solution was adjusted to 7.2-7.8. Capillary-fed ticks were kept in a plastic box on a warm plate at 34° C. and 80% RH using wet paper. After 1 h, the amount of solution imbibed by a tick was indicated by the drop of the meniscus in the capillary and measured using Vernier callipers and converted to mg. […]

## Cc1ccc(C(=O)Nc2ccc(S(=O)(=O)O)c3cc(S(=O)(=O)O)cc(S(=O)(=O)O)c23)cc1NC(=O)c1cccc(NC(=O)Nc2cccc(C(=O)Nc3cc(C(=O)Nc4ccc(S(=O)(=O)O)c5cc(S(=O)(=O)O)cc(S(=O)(=O)O)c45)ccc3C)c2)c1 [Suramin]
[1]; 200 pM ATP, suramin at 1 nM
  effect on EP response to ATP, in words: inhibited
[1]; ATP presented again approximately 2 min after antagonist
  duration of antagonism of the response to ATP: at least 2 min
[2]
  effect on feeding on solution containing ATP, in words: inhibited feeding
